Test results as given in patent US11085081B2, “Methods and materials for determining pain sensitivity and predicting and treating related disorders” (The University of North Carolina at Chapel Hill, priority 2004, dated 2021).
For some of these results: At least one structure is not confirmed: it was looked up by name or label, or the drawing left a doubt. Some of these results come from one statement about several compounds together.

How the values were obtained:
Sprague-Dawley rats = assay: Mechanical and thermal pain behavior testing (von Frey monofilaments, radiant heat); type: in vivo, rat
Method: Rats were placed in plexiglass cages positioned over an elevated perforated stainless steel platform and habituated to the environment for 15-25 min prior to testing. Paw withdrawal threshold to punctate mechanical stimulation was assessed using the up-down method of Chaplan et al. (1994). A series of nine calibrated filaments (with bending forces of 0.40, 0.68, 1.1, 2.1, 3.4, 5.7, 8.4, 13.2, and 25.0 g; Sammons Preston Rolyan, Bolingbrook, Ill., U.S.A.) with approximately equal logarithmic spacing between stimuli (Mean±SEM: 0.232±0.04 units) were presented to the hind paw in successive order, whether ascending or descending. Filaments were positioned in contact with the hind paw for a duration of 3 s or until a withdrawal response occurred. Testing was initiated with the middle hair of the series (3.4 g). In the absence of a paw withdrawal response, an incrementally stronger filament was presented and in the event of a paw withdrawal, an incrementally weaker filament was presented. After the initial response threshold was crossed, this procedure was repeated four times in order to obtain a total of six responses in the immediate vicinity of the threshold. The presence of paw withdrawal (X) and absence of withdrawal (O) was noted together with the terminal filament used in the series of six responses. The 50% g threshold=(10^[Xf+kδ])/10,000, where Xf=value (in log units) of the final von Frey hair used; k=tabular value of pattern of positive (X) and negative (O) responses, and δ=mean difference (in log units) between stimuli.
Immediately following determination of the response threshold, paw withdrawal frequency (%) to punctate mechanical stimulation was assessed. A von Frey monofilament with a calibrated bending force of 25 g was presented to the hind paw 10 times for a duration of 1 s with an interstimulus interval of approximately 1 s. […]
Thermal hyperalgesia was evaluated using the radiant heat method of Hargreaves et al. (1988) in the same animals evaluated for responsiveness to von Frey monofilaments. […]
After establishing stable baseline responsiveness to mechanical and thermal stimuli, separate groups of rats received intraperitoneal injections of OR486 (30 mg/kg i.p.; N=8) or vehicle (N=8) one hour prior to behavioral testing. […] Paw withdrawal latencies to radiant heat were subsequently assessed at 2.5 hours into the testing procedure. […] Paw withdrawal latencies to radiant heat were subsequently assessed at 2.5 hours post carrageenan.
Rats were handled and habituated to the testing environment 2-3 days prior to establishing baseline responsiveness. […] Paw withdrawal threshold to punctate mechanical stimulation was assessed using the up-down method of Chaplan (Chaplan et al. (1994)). […]

[1] = tested on: Mouse macrophages (RAW 264.7); assay: In vitro cytokine measurement (real time PCR of transcripts) in macrophages; type: cell-based; conditions: betaxolol 0.3 μM, ICI118,551 0.3 μM or SR59230A 0.1 μM without agonist; relative to untreated; range over the three antagonists
Method: Cell growth media consisted of Dulbecco's modified Eagle's medium supplemented with 10% heat-inactivated fetal bovine serum (Sigma, St. Louis, Mo., U.S.A.) and 1× penicillin-streptomycin (Gibco, Carlsbad, Calif., U.S.A.). Cells were maintained in a humidified atmosphere of 95% air and 5% CO2. Total RNA was isolated using the RNeasy Mini Kit (Qiagen, Valencia, Calif., U.S.A.). RNA was then treated with 2 units of DNase I (Ambion, Austin, Tex., U.S.A.) at 37° C. for 30 min. Reverse transcription was performed according to the manufacturer's instructions. Briefly, the reverse transcription reaction mixture consisted of 1 μg DNase 1-treated RNA, 500 ng oligo-[…], 10 mM dNTP, 40 units RNasin (Promega, Madison, Wis., U.S.A.), and 200 units of reverse transcriptase SUPERSCRIPT IIITM (Invitrogen, Carlsbad, Calif., U.S.A.). cDNA synthesis was carried out at 50° C. for 1 hr followed by inactivation of reverse transcriptase at 70° C. for 15 min. […] Cell maintenance and 3T3-L1 preadipocyte differentiation is described herein below. For pharmacological experiments, cells were seeded at a density of 5×10^5 cells/well in a 12-well plate (Corning). Total RNA was isolated and reverse transcribed as described in the supplementary materials. […] TNFα, IL-1β, and IL-6 transcript levels were normalized to Glyceraldehyde-3-phosphate dehydrogenase (GAPDH).

3T3-L1 adipocytes = assay: In vitro cytokine measurement (real time PCR of transcripts) in adipocytes; type: cell-based, mouse; conditions: betaxolol 0.3 μM, ICI118,551 0.3 μM or SR59230A 0.1 μM without agonist; relative to untreated; range over the three antagonists
Method: Cell growth media consisted of Dulbecco's modified Eagle's medium supplemented with 10% heat-inactivated fetal bovine serum (Sigma, St. Louis, Mo., U.S.A.) and 1× penicillin-streptomycin (Gibco, Carlsbad, Calif., U.S.A.). Cells were maintained in a humidified atmosphere of 95% air and 5% CO2.
Two days after reaching confluence in growth media, adipogenesis was induced by incubating cells in growth media containing 0.25 μM dexamethasone (Sigma), 0.5 mM IBMX (Sigma), and 1 μM insulin (Sigma). After an additional 2 days in growth media containing 1 μM insulin, cells were grown for 6-8 days in normal growth media.
Total RNA was isolated using the RNeasy Mini Kit (Qiagen, Valencia, Calif., U.S.A.). RNA was then treated with 2 units of DNase I (Ambion, Austin, Tex., U.S.A.) at 37° C. for 30 min. Reverse transcription was performed according to the manufacturer's instructions. […]
Mouse macrophages (RAW 264.7) and […] preadipocytes (3T3-L1) were obtained from the University of North Carolina Tissue Culture Facility. […] TNFα, IL-1β, and IL-6 transcripts were quantitated in quadruplicate by real time polymerase chain reaction using TAQMAN® Gene Expression Assays (Applied Biosystems, Foster City, Calif., U.S.A.) in an ABI PRISM 7000 Sequence Detection System. […]

[2] = i.p. 10 min prior to vehicle, phentolamine 3, propranolol 3, SCH23390 0.2, spiperone 0.2, betaxolol 1.0, ICI118,551 0.5, SR59230A 5 mg/kg, relative to vehicle

Structure (SMILES)	blockade of OR486-induced hyperalgesia / heightened pain sensitivity (Sprague-Dawley rats; antagonist i.p. prior to OR486)	paw withdrawal frequency to mechanical stimuli, antagonist in the absence of OR486 (Sprague-Dawley rats; [2])	paw withdrawal latency to radiant heat, antagonist in the absence of OR486 (Sprague-Dawley rats; [2])	paw withdrawal threshold to mechanical stimuli, antagonist in the absence of OR486 (Sprague-Dawley rats; [2])	induction of IL-1β mRNA in macrophages, antagonist alone [1]	induction of IL-6 mRNA in macrophages, antagonist alone [1]	induction of TNFα mRNA in adipocytes, antagonist alone (3T3-L1 adipocytes)
CN1CCc2cc(Cl)c(O)cc2[C@@H](c2ccccc2)C1 [SCH23390]	failed to block	failed to affect	failed to affect	failed to affect	–	–	–
CCc1ccccc1OC[C@@H](O)CN[C@H]1CCCc2ccccc21 [SR59230A, (1-(2-ethylphenoxy)-3-[[(1S)-1,2,3,4-tetrahydro-1-naphthalenyl]amino]-(2S)-2-propanol)]	–	–	–	–	0.91-1.16 fold	0.81-0.96 fold	0.84-1.47 fold
